For 1 molecule, IC50 results are on record in patent US8143259B2, “Cold menthol receptor antagonists” (Janssen Pharmaceutica, NV, priority 2008, dated 2012).

By UniProt entry, the sequences of proteins in these tests, tags left out. Residues count along the entry.
UniProt Q1A7N1, 1-1104: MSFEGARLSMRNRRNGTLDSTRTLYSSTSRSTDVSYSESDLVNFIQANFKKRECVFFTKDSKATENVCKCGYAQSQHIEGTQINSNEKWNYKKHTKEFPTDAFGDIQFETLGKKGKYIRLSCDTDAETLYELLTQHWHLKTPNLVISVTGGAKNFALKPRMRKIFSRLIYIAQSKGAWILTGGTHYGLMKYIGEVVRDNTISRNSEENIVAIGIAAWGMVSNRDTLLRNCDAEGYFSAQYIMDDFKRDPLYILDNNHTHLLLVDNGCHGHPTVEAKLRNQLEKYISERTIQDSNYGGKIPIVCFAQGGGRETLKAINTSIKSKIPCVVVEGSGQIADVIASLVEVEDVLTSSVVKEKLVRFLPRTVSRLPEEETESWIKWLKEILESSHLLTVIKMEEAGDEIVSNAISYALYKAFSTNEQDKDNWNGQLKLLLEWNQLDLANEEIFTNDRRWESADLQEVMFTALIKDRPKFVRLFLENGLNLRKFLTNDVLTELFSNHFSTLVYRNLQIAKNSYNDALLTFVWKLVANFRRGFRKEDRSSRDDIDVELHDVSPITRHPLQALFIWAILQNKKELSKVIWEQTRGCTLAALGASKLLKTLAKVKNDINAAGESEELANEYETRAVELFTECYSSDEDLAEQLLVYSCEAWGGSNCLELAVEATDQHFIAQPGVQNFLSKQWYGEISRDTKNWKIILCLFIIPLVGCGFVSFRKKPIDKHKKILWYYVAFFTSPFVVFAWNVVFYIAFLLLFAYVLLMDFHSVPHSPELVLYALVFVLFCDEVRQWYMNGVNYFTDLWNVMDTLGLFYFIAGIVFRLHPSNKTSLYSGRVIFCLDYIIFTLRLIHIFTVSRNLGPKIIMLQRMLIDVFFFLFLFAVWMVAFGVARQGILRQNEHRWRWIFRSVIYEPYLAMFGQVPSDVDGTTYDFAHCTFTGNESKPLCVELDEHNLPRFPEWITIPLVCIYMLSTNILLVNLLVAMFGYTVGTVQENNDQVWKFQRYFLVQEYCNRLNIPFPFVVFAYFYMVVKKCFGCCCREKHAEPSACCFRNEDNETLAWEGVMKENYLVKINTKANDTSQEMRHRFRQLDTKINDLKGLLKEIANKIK

Structures were worked out from names or drawings and are uncertain.

In the test the target is canine TRPM8 (Canis lupus familiaris, UniProt Q1A7N1). Nature of the test: In Vitro Canine TRPM8 Functional Assay (Ca2+ fluorescence, icilin activation). The test is classed as cell-based. Particulars: HEK293 cells stably expressing canine TRPM8. The protocol: The functional activity of compounds of the formula (I) was determined by measuring changes in intracellular calcium concentration using a Ca^2+-sensitive fluorescent dye. The changes in fluorescent signal were monitored by a fluorescence plate reader, either a FLIPR™ (Molecular Devices) or FDSS (Hamamatsu). Increases in intracellular Ca^2+ concentration were readily detected upon activation with icilin.
HEK293 cells stably expressing canine TRPM8 were routinely grown as monolayers in Dulbecco's minimum essential medium supplemented with 10% FBS, 2 mM L-glutamine, 100 units/mL penicillin, 100 ug/mL streptomycin and 400 μg/mL G418. Cells were maintained in 5% CO2 at 37° C. […] Cells were challenged with compounds of the formula (I) (at varying concentrations) and intracellular Ca^2+ was measured for 5 min prior to the addition of icilin to all wells to achieve a final concentration that produces approximately an 80% maximal response. […]
Maximal fluorescence intensity (FI) achieved upon addition of icilin was exported from the FLIPR or FDSS software and further analyzed using GraphPad Prism 3.02 (Graph Pad Software Inc., CA, U.S.A.). […] Curves were generated using the average of quadruplicate wells for each data point, were analyzed using nonlinear regression of either sigmoidal dose response or sigmoidal dose response (variable slope).

Take `O=C(C(Nc1ccccc1F)c1cc2cccnc2s1)N1CCCC1c1ccccc1F` (stereo not shown): the IC50 was 48 nM.

By IC50 is commonly meant the concentration that inhibits the measured activity by half. A lower IC50 goes with inhibition by little substance.
